No constants are given. Whether binding was seen depends on the method and setting. Some entries that bind do so weakly or less than the wild type.

Amino acid sequences for entries named in this document (tags omitted). A change or cut given only in a name is not applied to a line headed by its entry.
UniProt Q13308: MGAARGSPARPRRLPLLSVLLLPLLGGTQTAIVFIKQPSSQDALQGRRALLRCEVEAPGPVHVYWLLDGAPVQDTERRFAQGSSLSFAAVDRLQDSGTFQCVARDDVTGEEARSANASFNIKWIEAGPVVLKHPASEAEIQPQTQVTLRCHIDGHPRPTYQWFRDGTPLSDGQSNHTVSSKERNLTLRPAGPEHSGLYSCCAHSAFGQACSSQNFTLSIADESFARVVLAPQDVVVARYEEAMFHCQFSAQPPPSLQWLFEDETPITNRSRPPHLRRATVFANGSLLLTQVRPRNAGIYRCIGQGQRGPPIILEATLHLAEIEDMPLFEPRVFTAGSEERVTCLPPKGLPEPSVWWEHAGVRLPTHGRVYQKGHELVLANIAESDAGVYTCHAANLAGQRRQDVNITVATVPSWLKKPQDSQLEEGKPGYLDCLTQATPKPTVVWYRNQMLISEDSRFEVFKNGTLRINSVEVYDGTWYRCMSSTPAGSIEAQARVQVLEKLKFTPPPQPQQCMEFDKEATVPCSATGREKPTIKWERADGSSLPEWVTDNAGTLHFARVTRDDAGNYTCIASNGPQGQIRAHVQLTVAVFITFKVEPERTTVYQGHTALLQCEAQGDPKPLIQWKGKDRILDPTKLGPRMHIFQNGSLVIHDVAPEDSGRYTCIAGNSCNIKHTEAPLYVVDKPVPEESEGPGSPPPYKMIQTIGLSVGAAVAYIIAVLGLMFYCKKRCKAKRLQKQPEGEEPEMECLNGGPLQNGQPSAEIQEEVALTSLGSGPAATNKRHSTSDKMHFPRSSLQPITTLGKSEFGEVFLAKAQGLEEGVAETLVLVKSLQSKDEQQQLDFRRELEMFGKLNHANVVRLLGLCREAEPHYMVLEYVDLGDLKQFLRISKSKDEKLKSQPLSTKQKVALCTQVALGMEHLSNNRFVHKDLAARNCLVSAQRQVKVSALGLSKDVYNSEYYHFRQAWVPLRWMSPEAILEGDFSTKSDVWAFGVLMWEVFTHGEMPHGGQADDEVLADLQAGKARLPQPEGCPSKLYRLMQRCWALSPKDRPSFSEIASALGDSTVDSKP

The target in the test is human PTK7 antigen (form not stated) (human) (UniProt Q13308). Briefly: BIACORE. (In general: In SPR one partner is held on a chip, and binding of the other changes the refractive index at the surface.)

B1: hu58 (humanized anti-PTK7 antibody) (antibody, human IgG1, kappa, V domains shown)
VH: EVQLVESGGGLVQPGGSLRLSCAASGFDFSRYWMSWVRQAPGKGLEWIGDLNPDSSAINYVDSVKGRFTISRDNAKNSLYLQMNSLRAEDTAVYYCTLITTLVPYTMDFWGQGTSVTVSS
VL: ETTLTQSPAFMSATPGDKVNISCITNTDIDDDMNWYQQKPGEAAILLISEGNGLRPGIPPRFSGSGYGTDFTLTINNIESEDAAYYFCLQSDNLPLTFGSGTKLEIKR
Regarding B1, the binding result was “binds”.

(Values after patent US20180094075A1 (Pfizer, published 2018).)
